# In patent US20090155179A1, “KINETIC BIOMARKER FOR QUANTIFICATION OF LYMPHOPROLIFERATION, CLONAL EXPANSION, RECRUITMENT AND TRAFFICKING IN LYMPHOID TISSUES AND OF THE IN VIVO ACTIONS OF ANTIGENS AND MODULATING THEREON” (KINEMED, INC., priority 2005, published 2009):
# At least one compound was matched to its structure with a doubt left.
# System: PLN cells (draining popliteal lymph node lymphocytes)
# Test: kinetic PLNA (popliteal lymph node assay) with continuous 2H2O labeling after footpad immunization
# Assay type: in vivo, Balb/c mice
# Settings: OHU 500 mg/kg/d i.p.; for PLN cellularity under drug treatment: 5 μg KLH or PBS, day 7, Dex 0.3 mg/kg/d p.o., Rap 2 mg/kg/d p.o., Tax 10 mg/kg/d i.p.
# Procedure: PLNA and heavy water labeling. The kinetic PLNA was performed as follows, except as noted in the Figure legends. In all experiments, groups of n=4 or 5 Balb/c mice were immunized subcutaneously on day 0 in the left hind footpad (toe to heel direction) with 20 μl PBS or drug vehicle (negative control group), or with 20 μl PBS containing 5-25 μg KLH (positive control group). Heavy water labeling was initiated on day 0 by intraperitoneal administration of 99.9% ^2H2O containing 0.9% w/v NaCl at 35 ml/kg body weight, and animals were maintained on 8% ^2H2O in drinking water for the remainder of the study. At day 7 post immunization, animals were bled into heparinized tubes by cardiac puncture under isoflurane anesthesia and sacrificed by cervical dislocation. The blood was centrifuged at 1500×g for 10 minutes, and heparinized plasma was stored at −20° C. for determination of body water ^2H enrichment; a second aliquot was frozen for serologic studies. Bone marrow was harvested from the right hindlimb femur by flushing the bone with 1 ml PBS using a 25 ga cannula and centrifuging the tissue and cell suspension at 450×g for 5 min.
# Analysis of PLN cells. Draining PLN were dissected from the left hind limb, mechanically dispersed, using tweezers, into ice-cold RPMI 1640 containing 10% fetal bovine serum and antibiotics. The cell suspensions were thoroughly mixed and strained through a 35 μm cell strainer fitted to a 12×75 mm polystyrene tube (BD Biosciences, San Jose, Calif.) and centrifuged at 450×g at 4° C. for 5 min. […] The samples were diluted to 900 μl with staining buffer, mixed thoroughly with 100 μl Flow-Count fluorospheres, and analyzed on an Epics XL flow cytometer (Beckman Coulter, City/State) for determination of absolute lymph node cell counts and percentages and absolute counts of T cells, B cells, and non-T/B cells. Absolute cell counts per lymph node were determined as:
# Analysis of ^2H incorporation into purine dR. […] The derivative was analyzed by gas chromatography/mass spectrometry (GC/MS) as described supra, with selected ion monitoring at m/z 435 (for the parent mass isotopomer, M0) and 436 (M1). After integration of the M0 and M1 peak area using ChemStation software, the excess mole fraction of the M1 mass isotopomer (EM1) was calculated as: […]
# Calculations and statistics. Fractional turnover of PLN cell populations (f, the fraction of total, T, or B cells that have divided during the labeling period, representing clonal expansion, FIG. 1) was calculated as: […]
Compound,PLN cellularity under drug treatment,"f of total PLN cells after KLH stimulation (5 μg KLH, daily drug to day 7: Rap 2 mg/kg/d p.o.)","f of total PLN cells at baseline (sham-immunized (PBS), daily drug to day 7: Rap 2 mg/kg/d p.o.)"
"C[C@@H]1C[C@H]2[C@@H]3CCC4=CC(=O)C=C[C@]4(C)[C@@]3(F)[C@@H](O)C[C@]2(C)[C@@]1(O)C(=O)CO [Dexamethasone, dexamethasone]",reduced cellularity more than f,–,–
CO[C@H]1C[C@@H]2CC[C@@H](C)[C@@](O)(O2)C(=O)C(=O)N2CCCC[C@H]2C(=O)O[C@H]([C@H](C)C[C@@H]2CC[C@@H](O)[C@H](OC)C2)CC(=O)[C@H](C)/C=C(\C)[C@@H](O)[C@@H](OC)C(=O)[C@H](C)C[C@H](C)/C=C/C=C/C=C/1C [rapamycin],reduced after only antigenic stimulation,inhibited,inhibited
